Data as given in PubChem BioAssay AID493014 (National Center for Advancing Translational Sciences (NCATS), 2011).
About 170 (0.05%) of roughly 340,000 compounds were called active. This list was built around the results that the source calls inconclusive (neither active nor inactive); the mix of calls is not that of the screen. Calls follow the shape of the dose curve; as a rule, active = well fitted inhibition curve with a large enough effect in the signal ratio, with a control signal flat (not every such curve was filed as active); inconclusive = small, poorly fitted or top-dose-only effect, or effect the other way, or a change in a side signal; inactive = flat fitted curve, though single readings scatter; the % refers to the signal ratio. A potency beside an inconclusive call is a rough fit, not a confirmed value.
Potency is read from the fitted curve at half-maximal effect.

Assay: qHTS Assay to Find Inhibitors of Chronic Active B-Cell Receptor Signaling;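 as to activity change, negative = inhibition: plate controls were basal doxycycline-induced cells for no effect and cells given 10 µM MG132 for full effect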
Details: ABC-DLBCL IkBa-CBG/CBR reporter, luminescence ratio (green luciferase fused to IkBa over red control in TMD8 lymphoma cells), 4 h; activity change, negative = inhibition: at 46.1 µM (top of the series) unless noted
Summary of the method: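 TMD8 human ABC-DLBCL cells with doxycycline-inducible IκBα–green luciferase fusion and unfused red luciferase, in 0.5% FBS medium; compounds up to 46 uM, 4 h at 37C. Green/red luminescence ratio, filter-overlap corrected, fitted to concentration-response curves.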
For `CN(Cc1ccc(F)cc1)C(=O)c1cccc(OC2CCN(C3CCCC3)CC2)c1`, the activity change, negative = inhibition was inconclusive: 3.67%. With `CCOC(=O)c1cnc2c(OC)cccc2c1Nc1ccc2c(c1)OCCO2` the activity change, negative = inhibition was inconclusive: 11.8%. For `O=S1(=O)CCOC[C@H](CC2CCCCC2)N1Cc1ccccc1`, the “activity change, negative = inhibition” value was inactive: 1.85%. With `CC(=O)c1ccc(-c2ccc(-c3cc(=O)oc4c(C(C)C)ccc(C)c34)cc2)cc1` the activity change, negative = inhibition was inconclusive: 5.24%. With `COCc1nnc(NC(=O)c2ccc(S(=O)(=O)N(C)Cc3ccccc3)cc2)o1` the “activity change, negative = inhibition” value was inactive: -2.65%. In the case of `Cc1cc(C(=O)Nn2cnc3ccccc3c2=O)ccc1[N+](=O)[O-]`, the Potency is reported as inconclusive: 35.5 µM [falling, single point]. For `Oc1cccc(C(Nc2nccs2)c2ccc3cccnc3c2O)c1` (stereo not given), the activity change, negative = inhibition was inconclusive: 23.6%. For `Cc1cccc(C)c1OCC(=O)NCc1nnc(SCC(=O)NC2CCCCC2C)n1C` (stereo not given), the activity change, negative = inhibition was inconclusive: 7.48%. In the case of `COc1ccccc1N(CC(=O)Nc1cccnc1)S(=O)(=O)c1ccccc1`, the activity change, negative = inhibition is reported as inconclusive: 5.64%. With `O=C(NC1CCCC1)C1C2C=CC3(CN(Cc4cccs4)C(=O)C13)O2` (stereo not given) the activity change, negative = inhibition was inconclusive: 3.28%. For `CN(Cc1ccccc1)C(=O)COC(=O)CCN1C(=O)C2CC=CCC2C1=O` (stereo not given), the “activity change, negative = inhibition” value was inactive: 2.93%. For `COc1ccc(Cc2nnc(N/N=C/c3ccccc3O)[nH]c2=O)cc1OC`, the Potency was inconclusive: 0.461 µM [falling, full curve, poor fit]. With `Cc1c(O)ccc(C(=O)COc2ccccc2F)c1O` the activity change, negative = inhibition was inconclusive: 2.08%. With `COc1ccc(C2Nc3ccccc3C(=O)N2Cc2ccccc2)cc1COc1ccccn1` (stereo not given) the activity change, negative = inhibition was inconclusive: 19.1%. With `COC(=O)c1ccc(-c2ncc(-c3cccc4ccccc34)o2)cc1` the Potency was inconclusive: 0.326 µM [rising, full curve, poor fit]. In the case of `N#C/C(=N\Nc1ccccc1)C(=N)N1CCCCCC1`, the “activity change, negative = inhibition” value is reported as inactive: -2.77%. In the case of `CN(C)N1C(=O)CC(N2CCCCC2)C1=O` (stereo not given), the “activity change, negative = inhibition” value is reported as inactive: -1.98%. With `COc1cc(C(=O)/C=C/Nc2ccc(NC(C)=O)cc2)cc(OC)c1OC` the Potency was inconclusive: 18.4 µM [falling, single point]. In the case of `CC(C)(C)c1ccc(C2C3=C(CCCC3=O)NC3=C2C(=O)c2ccccc23)cc1` (stereo not given), the activity change, negative = inhibition is reported as inconclusive: 0.986%. For `Cc1oc(-c2nc3ccccc3n2C)cc1C(=O)c1ccccc1`, the activity change, negative = inhibition was inconclusive: -6.02%. In the case of `CC(=O)c1ccccc1NC(=O)COc1ccc(N(C)S(=O)(=O)c2ccc(C)c(C)c2)cc1`, the “activity change, negative = inhibition” value is reported as inactive: 0.257%. In the case of `Cc1ccccc1NC(=O)COC(=O)c1cc(=O)c2ccccc2o1`, the “activity change, negative = inhibition” value is reported as inactive: 0.619%. In the case of `C[C@]12c3[nH]c4ccccc4c3CCN1C(=O)C(CC(=O)NCC13CC4CC(CC(C4)C1)C3)C[C@@H]2C(=O)N1CCOCC1` (stereo not given in full), the activity change, negative = inhibition is reported as inconclusive: -16.8%. With `O=S(=O)(NC1CCN(S(=O)(=O)c2ccc3c(c2)OCCO3)C1)c1c(F)cccc1F` (stereo not given) the activity change, negative = inhibition was inconclusive: 0.139%. With `C(=N/Nc1nc(-c2ccccc2)cc(-c2ccccc2)n1)/c1cccnc1` the Potency was inconclusive: 11.6 µM [falling, partial curve]. In the case of `COC(=O)[C@H](Cc1ccc(O)cc1)NC(=O)Cn1cnc2c(OCc3ccccc3)ncnc21`, the activity change, negative = inhibition is reported as inconclusive: -6.63%. For `CC(C)[C@H](NC(=O)c1ccccc1)C(=O)OCC(=O)NCCc1ccc(F)cc1`, the activity change, negative = inhibition was inconclusive: -2.12%. With `CC(C)C[C@H](NC(=O)N1CCn2c1nc1ccccc12)C(=O)NCc1ccco1` the activity change, negative = inhibition was inconclusive: 0.319%. For `CCOC(=O)c1c(NC(=O)CN2C(=O)NC3(CCC(C)CC3)C2=O)sc(C(=O)N(C)C)c1C` (stereo not given), the “activity change, negative = inhibition” value was inactive: 2.64%. For `COc1cc(C(=O)NC(=S)Nc2ccccc2N2CCOCC2)cc(OC)c1OC`, the Potency was inconclusive: 1 µM [rising, full curve, poor fit]. In the case of `Cc1nc2cc(-c3ccccc3)nn2c(C)c1CCC(=O)N1CCN(c2ccccc2)CC1`, the Potency is reported as inconclusive: 4.11 µM [falling, partial curve, poor fit]. With `CCOc1cccc(C(=O)Nc2cccc(-c3nnc(-c4ccccc4)o3)c2)c1` the activity change, negative = inhibition was inconclusive: 4.89%. For `O=C(CN1C(=O)C(=O)N(C2CCCC2)C1=O)Nc1ccc(OC(F)F)cc1`, the activity change, negative = inhibition was inconclusive: 4.99%. In the case of `CN(Cc1ccc(C(C)(C)C)cc1)C(=O)C1CCN(C(=O)Nc2ccccc2)CC1`, the “activity change, negative = inhibition” value is reported as inactive: -18.1%. In the case of `CCC(C)C(=O)Nc1cccc(SC)c1` (stereo not given), the Potency is reported as inconclusive: 25.1 µM [falling, partial curve, poor fit]. With `CC[C@@]1(O)C(=O)OCc2c1cc1n(c2=O)Cc2cc3c(N)cccc3nc2-1` the activity change, negative = inhibition was inconclusive: 24%. For `Cc1cccc(/C(N)=N/OC(=O)Cc2cccs2)c1`, the activity change, negative = inhibition was inconclusive: 8.05%. For `Cc1cccc(C)c1NC(=O)CN(C)C(=O)C1CCN(c2ncnc3sc(C)c(C)c23)CC1`, the “activity change, negative = inhibition” value was inactive: 3.8%. In the case of `c1cc2c(cc1-c1[nH]ncc1CN1CC3C[C@@H]4CC1C[C@H](C3)C4)OCO2`, the activity change, negative = inhibition is reported as inconclusive: -12.8%. In the case of `CC(=O)c1c(C)[nH]c(C(=O)Nc2cccc(S(=O)(=O)N(C)c3ccccc3)c2)c1C`, the Potency is reported as inconclusive: 35.5 µM [falling, single point]. With `c1ccc(COCCN2CCN(CCOCc3ccccc3)CC2)cc1` the Potency was inconclusive: 5.8 µM [falling, single point]. In the case of `O=C(NCc1ccco1)Nc1ccccc1Cl`, the activity change, negative = inhibition is reported as inconclusive: 7.4%. For `CCN(CC)C(=O)CSc1nc2nc(C)cc(C)c2c(=O)[nH]1`, the activity change, negative = inhibition was inconclusive: 10.9%. For `Cc1cccc(NC(=S)N=Nc2c(O)n(C)c3ccc(S(=O)(=O)N4CCOCC4)cc23)c1`, the Potency was inconclusive: 14.6 µM [falling, partial curve]. In the case of `Cc1ccc(S(=O)(=O)N/N=C2/CC(c3ccccc3)Oc3ccccc32)cc1[N+](=O)[O-]` (stereo not given), the Potency is reported as inconclusive: 0.411 µM [rising, full curve]. For `CCc1ccc(NC(=S)N(Cc2ccccc2)Cc2ccccn2)cc1`, the “activity change, negative = inhibition” value was inactive: 9.52%. For `CCOC(=O)COc1cc2oc(=O)cc(C)c2cc1[N+](=O)[O-]`, the “activity change, negative = inhibition” value was inactive: 0.183%. In the case of `Cc1cc(C(=O)COc2nncc3ccccc23)c(C)n1C`, the activity change, negative = inhibition is reported as inconclusive: -0.904%. With `CCC(=O)Nc1nnc(S(=O)(=O)N2CCc3ccccc32)s1` the “activity change, negative = inhibition” value was inactive: -9.23%. For `O=C1[C@@H]2[C@H](Cc3ccc(O)cc3)N[C@]3(C(=O)Nc4ccccc43)[C@@H]2C(=O)N1c1ccc(F)cc1`, the activity change, negative = inhibition was inconclusive: -0.257%.
